Literature values as cited in patent US20130231311A1, “NOVEL FORMULATIONS FOR TREATMENT OF MIGRAINE” (ZOGENIX, INC., priority 2008, published 2013).
Counter-ions that a name gives are not always drawn. At least one structure is not confirmed: it was looked up by name or label, or the drawing left a doubt.

Test system: migraine
Conditions: taking sildenafil citrate 3 or 4 times weekly; migraines returned when treatment ceased; cited from earlier work

## CCCc1nn(C)c2c(=O)[nH]c(-c3cc(S(=O)(=O)N4CCN(C)CC4)ccc3OCC)nc12 [sildenafil citrate]
  migraine free period: 18 months
